# According to the supplement of paper PMC12889115:
# The list shows a part of the results. Values are raw readings; no control value is given beside them.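 In the initial screen, polymyxin B was used at a concentration that permeabilizes Salmonella's outer membrane but not its inner membrane. Maximum growth was set by DMSO wells with or without polymyxin B. Since plates varied, data were ranked per plate, and compounds giving the lowest OD600 advanced as hits.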
# System: Salmonella enterica serovar Typhimurium SL1344
# Experiment: bacterial growth OD600 after 18 h with compound and polymyxin B; higher = more bacterial growth (less inhibition)
# Conditions: 50 µM, Mueller-Hinton broth
Structure (SMILES),bacterial growth OD600 (polymyxin B 1 µg/mL),bacterial growth OD600 (polymyxin B 0.75 µg/mL)
Cc1cccc(C)c1Oc1ncccc1CNC(=O)Cc1ccccn1,1.02,–
Cc1cnc(C)c(N2CCC(C3CCN(Cc4cccnc4)CC3)C2)n1 (stereo unspecified),–,0.934
Cc1cc2c(c(-c3cnccn3)c1)OC(CNC(=O)/C=C/c1cccs1)C2 (stereo unspecified),–,0.007
CC1(C)CC(NC(=O)c2coc(COc3ccccc3)n2)CCO1 (stereo unspecified),0.926,–
O=C(CC1=CCCCC1)N1CCc2[nH]nc(-c3cccc(F)c3)c2C1,–,0.596
CCCc1cc(CNC(=O)c2ccc(N3CCCC3c3ccccn3)nc2)on1 (stereo unspecified),0.989,–
CCC(COC)NC1CCN(c2ccc(C(=O)NCc3ccc4c(c3)OCO4)cc2)CC1 (stereo unspecified),–,0.92
COCC(=O)N1CCC(Oc2ccc(C(=O)NCc3cccc(OC)c3)cc2)CC1,1.02,–
O=C(Cn1cncn1)N1CCCC(CCc2c(F)cccc2F)C1 (stereo unspecified),–,0.824
CS(=O)(=O)NCc1cccnc1N1CCN(c2ccccn2)CC1,0.956,–
OC(c1ccccn1)C1CCN(c2nc3nonc3nc2N2CCCCCC2)CC1 (stereo unspecified),0.883,–
O=C1N(Cc2ccc(F)cc2)CCCC1(O)CN1CCC(Cn2cccn2)CC1 (stereo unspecified),1,–
CC(C)CCC1(C2CCN(C(=O)c3cccc(F)c3F)CC2)NC(=O)N(Cc2ccccn2)C1=O (stereo unspecified),–,0.87
Nc1ncc(CN2CCC(N3CCC(C(=O)NCc4ccccn4)CC3)CC2)cn1,1.12,–
Cn1nc(C(=O)N2CCCC(CCc3ccc(F)cc3F)C2)ccc1=O (stereo unspecified),–,0.645
Cn1ccnc1CN1CCC(CCC(=O)Nc2ccc3c(c2)OCCO3)CC1,1.06,–

Structure (SMILES),bacterial growth OD600 (polymyxin B 1 µg/mL),bacterial growth OD600 (polymyxin B 0.75 µg/mL)
CCN(CC)C(=O)C1CCCN(C(=O)c2ccc3nc(-c4cccc(OC)c4)oc3c2)C1 (stereo unspecified),0.957,–
CCOC(=O)C1(Cc2cccc(OC)c2)CCN(Cc2ccccc2OC)CC1,0.933,–
Cc1c[nH]c(CN(C)C2CCCN(C3Cc4ccccc4C3)C2)n1 (stereo unspecified),0.939,–
Cc1csc(SCC(=O)N2CCCC(CNS(=O)(=O)c3cccs3)C2)n1 (stereo unspecified),1.06,–
COc1ccc(CCCNC(=O)c2ccc(N3CCN(C(C)C)CC3)nc2)cc1,1.09,–
OCC1(Cc2ccccc2Cl)CCN(Cc2cccc(F)c2F)CC1,0.732,–
CC(C)Cn1cc(C(=O)N2CCCCCC2)c(=O)c(C(=O)N2CCN(c3cccc(Cl)c3)CC2)c1,–,0.97
COC(=O)CCC(=O)NC1CCCc2nc(-c3ccccc3)ncc21 (stereo unspecified),1.14,–
CCn1ccnc1CN(C)Cc1nc(Cc2cccc(C(F)(F)F)c2)no1,0.794,–
CC(C)N(CC1CCC(=O)N1)c1ccc(-c2nc(Cc3ccccc3)no2)cn1 (stereo unspecified),–,0.52
COC(=O)[C@@H]1CCCN1C1CCN(c2ccc(CC(=O)NCCc3ccccc3OC)cc2)CC1,–,0.829
CCOC(=O)c1n[nH]cc1CN1CCOC(Cc2ccc(OC)cc2)C1 (stereo unspecified),–,0.872
COC(c1ccc2c(c1)CN(C(=O)c1cc3ncccn3n1)CCO2)C1CCCCC1 (stereo unspecified),–,0.004
CCOC(=O)CNC(=O)N(C)CC1CCCN(CCc2ccccc2OC)C1 (stereo unspecified),0.949,–
CCN(CC1CCCO1)C(=O)C1CCN(c2nc(C)c3ccc(S(C)(=O)=O)cc3n2)CC1 (stereo unspecified),–,0.815

# Look-ups from above.
# bacterial growth OD600 (polymyxin B 1 µg/mL) with CCN(CC)C(=O)C1CCCN(C(=O)c2ccc3nc(-c4cccc(OC)c4)oc3c2)C1 (stereo unspecified) is entered as 0.957
# bacterial growth OD600 (polymyxin B 1 µg/mL) with Cc1c[nH]c(CN(C)C2CCCN(C3Cc4ccccc4C3)C2)n1 (stereo unspecified) is entered as 0.939
